Experimental data: patent US3961054A, “Combatting dandruff with mercapto quinoline N-oxides” (Ciba-Geigy Corporation, priority 1974, dated 1976)

System: P. Ovale
Assay: Microbiological activity against P. Ovale, agar serial dilution (Table 1)
Type: cell-based, P. Ovale (ATCC 14521)
Conditions: 96 h, read-out: Minimum Inhibitory Concentration (MIC) against P. Ovale
Description: The microbiological activities of the zinc and sodium complexes of 2-mercapto-quinoline-N-oxide (MQNO) against P. Ovale were compared with the sodium and zinc salts of pyridinethione-N-oxide (PTO) and other conventional soapbacteriostats. P. Ovale is a microorganism associated with dandruff conditions.
Equal amounts of the respective compounds were dissolved in methyl cellosolve, dimethylformamide, or water, serially diluted in ten fold sequence and incorporated into plates of molten Agar. The plates were allowed to solidify, were then inoculated with P. Ovale (ATCC 14521), incubated at 27°C. for 4 days and inspected for growth.

CC(C)(C)CC(C)(C)c1ccc(OCCOCC[N+](C)(C)Cc2ccccc2)cc1 [Benzethonium chloride]
MIC: > 1000 µg/mL
